Compound in the assay: Cc1cc(ccc1-c1ccccc1)C(=O)N1CCCN(CC1)C(=O)CCl [compound 10]
Description: probe-labelled cysteine peptide fold change vs DMSO (competition) (log2 fold change); higher = less target engagement (more negative = stronger competition). To be noted: THP-1, incubation time: 4 h.

The list shows a part of the results.
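Also: competitive profiling in live THP-1 cells: cysteine peptides tagged with an iodoacetamide desthiobiotin (IA-DTB) probe, intensity after compound treatment relative to DMSO-treated cells.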

With “PTPN12_Q05209_724_CDHPAGGIHYEMCIECPPTFSDK (UniProt Q05209)”, the “probe-labelled cysteine peptide fold change” value is -0.215 (10 µM) and -0.292 (50 µM).
For the target “PTK2B_Q14289_352_TSSLAEAENMADLIDGYCR (UniProt Q14289)”, the “probe-labelled cysteine peptide fold change” value worked out at 0.255 (10 µM) and 0.131 (50 µM).
For “PTPRC_P08575_1261_VKQDANCVNPLGAPEK (UniProt P08575)”, in that order: -0.224 and -0.555.
As for “PTPN23_Q9H3S7_697_TQSTCQAR (UniProt Q9H3S7)”, the “probe-labelled cysteine peptide fold change” value is -0.0223 (10 µM) and 0.102 (50 µM).
Regarding “PTPA_Q15257_202_IDYGTGHEAAFAAFLCCLCK (UniProt Q15257)”, the “probe-labelled cysteine peptide fold change” value reads like this: (10 µM) -0.094; (50 µM) 0.556.
Consider “PSMB5_P28074_111_VIEINPYLLGTMAGGAADCSFWER (UniProt P28074)”, for which the “probe-labelled cysteine peptide fold change” value is 0.235 (10 µM) and 0.464 (50 µM).
For “PTK2B_Q14289_310_CLPLEEGQAVLQLGIEGAPQALSIK (UniProt Q14289)”, the “probe-labelled cysteine peptide fold change” value (10 µM) amounted to 0.223 and the “probe-labelled cysteine peptide fold change” value (50 µM) is -0.0202.
On to “PSMC6_P62333_170_GCLLYGPPGTGK (UniProt P62333)”, for which the “probe-labelled cysteine peptide fold change” value is, setting by setting: (10 µM) -0.021; (50 µM) 0.0529.
Regarding “PSTPIP1_O43586_242_NALWVHSNQLSMQCVK (UniProt O43586)”, the “probe-labelled cysteine peptide fold change” value by setting is: (10 µM) 0.123; (50 µM) 0.494.
With “PTCD1_O75127_695_EADDGCALGGR (UniProt O75127)”, the “probe-labelled cysteine peptide fold change” value is -0.438 (10 µM) and -0.792 (50 µM).
As to “PTPN12_Q05209_164_ISCEDEQAR (UniProt Q05209)”, the “probe-labelled cysteine peptide fold change” value (10 µM) came to 0.159 and the “probe-labelled cysteine peptide fold change” value (50 µM) turned out to be 0.15.
“PTK2B_Q14289_661_CWDYDPSDRPR (UniProt Q14289)”: the “probe-labelled cysteine peptide fold change” value worked out at 0.0954 (10 µM) and 0.138 (50 µM).
For “PSMD10_O75832_48_TALHWACSAGHTEIVEFLLQLGVPVNDK (UniProt O75832)”, in that order: 0.346 and 0.374.
Turning to “PSMD4_P55036_37_LQAQQDAVNIVCHSK (UniProt P55036)”, the “probe-labelled cysteine peptide fold change” value reads like this: (10 µM) -0.141; (50 µM) -0.273.
“PSPH_P78330_187_IIMIGDGATDMEACPPADAFIGFGGNVIR (UniProt P78330)”: the “probe-labelled cysteine peptide fold change” value reads like this: (10 µM) 0.0605; (50 µM) 0.373.
For “PSMD1_Q99460_633_TPEQCPSVVSLLSESYNPHVR (UniProt Q99460)”, in that order: -0.0347 and -0.0178.
Turning to “PSMD2_Q13200_459_NECDPALALLSDYVLHNSNTMR (UniProt Q13200)”, the “probe-labelled cysteine peptide fold change” value (10 µM) came out at 0.171 and the “probe-labelled cysteine peptide fold change” value (50 µM) was 0.155.
Turning to “PSMD1_Q99460_571_MEEADALIESLCR (UniProt Q99460)”, the “probe-labelled cysteine peptide fold change” value is -0.0968 (10 µM) and 0.129 (50 µM).
As for “PSMD5_Q16401_412_GISSQPFPELHCAALK (UniProt Q16401)”, the “probe-labelled cysteine peptide fold change” value was -0.00286 (10 µM) and -0.0414 (50 µM).
For the target “PTK2B_Q14289_650_LPKPDLCPPVLYTLMTR (UniProt Q14289)”, the “probe-labelled cysteine peptide fold change” value reads like this: (10 µM) -0.0544; (50 µM) -0.0157.
Turning to “PSMB10_P40306_83_IYCCGAGVAADAEMTTR (UniProt P40306)”, the “probe-labelled cysteine peptide fold change” value reads like this: (10 µM) -0.284; (50 µM) -0.179.
“PTPRJ_Q12913_1294_MHRPLMVQTEDQYVFLNQCVLDIVR (UniProt Q12913)”: the “probe-labelled cysteine peptide fold change” value came out at 0.0991 (10 µM) and 0.0715 (50 µM).
In the same order, the values of “PTCD3_Q96EY7_139_DIAEPHIPCLMPEYFEPQIK (UniProt Q96EY7)” are -0.274 and -0.604.
For “PTGES3_Q15185_75_SILCCLR (UniProt Q15185)”, the “probe-labelled cysteine peptide fold change” value is, setting by setting: (10 µM) 0.00638; (50 µM) -0.0974.
Take “PTPRC_P08575_367_CDSEILYNNHK (UniProt P08575)”: the “probe-labelled cysteine peptide fold change” value reads like this: (10 µM) -0.226; (50 µM) 0.0169.
With “PSMA6_P60900_115_YGYEIPVDMLCK (UniProt P60900)”, the “probe-labelled cysteine peptide fold change” value by setting is: (10 µM) -0.0458; (50 µM) 0.0168.
As to “PSMC3_P17980_400_AVCVEAGMIALR (UniProt P17980)”, the “probe-labelled cysteine peptide fold change” value was -0.0751 (10 µM) and 0.131 (50 µM).
For “PSME3_P61289_92_RRLDECEEAFQGTK (UniProt P61289)”, in that order: -0.145 and -0.293.
As for “PTPN7_P35236_204_CVHYWPTEEETYGPFQIR (UniProt P35236)”, the “probe-labelled cysteine peptide fold change” value by setting is: (10 µM) -0.0465; (50 µM) -0.364.
With “PSMD4_P55036_58_SNPENNVGLITLANDCEVLTTLTPDTGR (UniProt P55036)”, the “probe-labelled cysteine peptide fold change” value is, setting by setting: (10 µM) -0.114; (50 µM) -0.0946.
Regarding “PSMA6_P60900_115_YGYEIPVDMLCKR (UniProt P60900)”, the “probe-labelled cysteine peptide fold change” value (10 µM) is -0.269 and the “probe-labelled cysteine peptide fold change” value (50 µM) was -0.721.
As for “PUM1_Q14671_1102_AVLIDEVCTMNDGPHSALYTMMK (UniProt Q14671)”, the “probe-labelled cysteine peptide fold change” value by setting is: (10 µM) -0.239; (50 µM) 0.0523.
As for “PSME1_Q06323_101_KKGEDEDKGPPCGPVNCNEK (UniProt Q06323)”, the “probe-labelled cysteine peptide fold change” value is -0.428 (10 µM) and -1.54 (50 µM).
With “PSMB8_P28062_160_LLSNMMCQYR (UniProt P28062)”, the “probe-labelled cysteine peptide fold change” value (10 µM) worked out at 0.0795 and the “probe-labelled cysteine peptide fold change” value (50 µM) was -0.168.
In the case of “PTPN23_Q9H3S7_116_YEQACILYNLGALHSMLGAMDK (UniProt Q9H3S7)”, the “probe-labelled cysteine peptide fold change” value is, setting by setting: (10 µM) 0.00122; (50 µM) 0.181.
As for “PSMC6_P62333_228_DHQPCIIFMDEIDAIGGR (UniProt P62333)”, the “probe-labelled cysteine peptide fold change” value by setting is: (10 µM) -0.0612; (50 µM) 0.106.
Consider “PTCD3_Q96EY7_551_DKHPPELQVAFADCAADIK (UniProt Q96EY7)”, for which the “probe-labelled cysteine peptide fold change” value was -0.203 (10 µM) and -0.185 (50 µM).
With “PTPN1_P18031_324_CREFFPNHQWVK (UniProt P18031)”, the “probe-labelled cysteine peptide fold change” value was -0.435 (10 µM) and -0.597 (50 µM).
